Assay results published in US20090131308A1 (AGOS BIOTECH LTD., priority 2003, published 2009).

Assay: Fmoc solid-phase peptide synthesis; Tentagel-Lys(Boc)-Fmoc resin; N-methylpyrrolidone/hydroxybenzotriazole activated ester
Conditions: whole synthesis

**Q.** For “GHARKCNETAKSYCVNGGVCYYIEGINQLSCK-OH (C-terminal free acid)”, which difficulty met is on record?
**A.** Some minor deletion products were detected for hNRG2 (1-32)

**Q.** With “NSDSECPLSHDGYCLHDGVCMYIEALDKYACK-OH (C-terminal free acid)” as the substance, how does the difficulty met (several disulfide bridges, sequence written open) read?
**A.** high aggregation potential of the peptide sequence which led to incomplete couplings and sequence termination
